Results as given in patent publication US9682977B2, “Bicyclic heteroaryl indole analogues useful as ROR gamma modulators” (Glenmark Pharmaceuticals S.A., priority 2013, dated 2017).

Biological target: T1, GST-tagged ROR gamma ligand binding domain (LBD) (Homo sapiens, UniProt P51449)
T1 construct: purchased Invitrogen
T1 sequence (P51449 269-508 limits assumed): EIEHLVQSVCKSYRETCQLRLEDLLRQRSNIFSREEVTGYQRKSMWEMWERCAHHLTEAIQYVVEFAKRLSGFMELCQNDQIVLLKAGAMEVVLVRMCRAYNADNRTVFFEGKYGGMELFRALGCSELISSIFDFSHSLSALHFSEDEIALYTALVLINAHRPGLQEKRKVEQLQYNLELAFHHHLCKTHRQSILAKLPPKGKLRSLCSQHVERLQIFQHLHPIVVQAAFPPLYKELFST
Assay: TR-FRET assay for ROR gamma (Lantha Screen, co-activator peptide recruitment)
Assay type: biochemical
Details: for inhibition at 1 µM: read-out: % inhibition at 1 μM; for inhibition at 10 µM: read-out: % inhibition at 10 μM

Row | Structure (SMILES) | inhibition at 1 µM | inhibition at 10 µM | IC50
1 | O=C(O)c1ccc(-n2cc(C(=O)c3c(Cl)cccc3Cl)c3cccc(F)c32)c(F)c1 [Example 25, 4-[3-(2,6-Dichlorobenzoyl)-7-fluoro-1H-indol-1-yl]-3-fluorobenzoic acid] | 96.3% | 94.2% | 
2 | O=C(O)c1ccc(-n2cc(C(=O)c3c(Cl)cccc3Cl)c3ccccc32)c(F)c1 [Example 19, 4-{3-[(2,6-Dichlorophenyl)carbonyl]-1H-indol-1-yl}-3-fluorobenzoic acid] | 94.5% | 94.9% | < 50 nM
